The whole screen tested about 1,400 compounds, of which fewer than 10 were called active.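 How the source made its calls: active means fluorescence-lowering compounds whose fitted half-maximal concentration is at or below ten times the highest valid dose tested; inconclusive means flat curve at 30 to 70% inhibition, or poor fit; inactive means the rest.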 This is one part of the list.

The chains behind the UniProt entries cited, without tags or fusion partners. Where a name states a change or a piece, a line headed by the entry shows the natural chain unless it says otherwise.
UniProt O15379: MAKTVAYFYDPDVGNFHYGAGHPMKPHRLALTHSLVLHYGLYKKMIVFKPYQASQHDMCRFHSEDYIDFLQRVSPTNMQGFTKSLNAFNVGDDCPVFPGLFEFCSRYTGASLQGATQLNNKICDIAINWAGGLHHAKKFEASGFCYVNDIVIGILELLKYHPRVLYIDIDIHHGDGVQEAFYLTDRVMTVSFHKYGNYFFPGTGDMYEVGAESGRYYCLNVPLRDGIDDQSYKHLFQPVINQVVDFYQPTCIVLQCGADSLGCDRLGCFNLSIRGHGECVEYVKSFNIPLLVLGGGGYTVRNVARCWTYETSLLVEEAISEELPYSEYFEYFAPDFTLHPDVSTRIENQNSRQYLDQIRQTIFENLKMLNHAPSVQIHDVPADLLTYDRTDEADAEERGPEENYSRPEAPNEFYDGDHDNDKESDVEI

The test has as its target Histone deacetylase 3 (Homo sapiens) (UniProt O15379). The test can be described thus: inhibition of human HDAC3 enzymatic activity – biochemical, fluorescence, cherry-picked samples, counter-screen for JMJD2C/GASC1 demethylase inhibitor project, dose response (AID 485318).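 Further: enzyme preincubated with compound before substrate and trypsin were added; 0% = neutral control wells and -100% = SAHA positive control wells.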 The conditions noted are these: recombinant HDAC3, fluorogenic peptide/trypsin coupled; at 12 µM (top of the series). In general terms: A counterscreen serves to expose hits that act by an unwanted route or on another target.
On to `CSc1nc(N2CCN(C)CC2)c2c(c1C#N)CC(C)(C)OC2`, for which the activity change, negative = inhibition is inactive: 0.22%.

With `O=C(CSc1nnc(CNC(=O)c2cccs2)o1)c1ccccc1`, the activity change, negative = inhibition was inactive: 0.0984%.

In the case of `O=[N+]([O-])c1ccccc1S(=O)(=O)N1CCN(Cc2ccc3c(c2)OCO3)CC1`, the activity change, negative = inhibition is inactive: -0.716%. With `COc1cccc(/C=N/NC(=O)CNC(=O)c2cccs2)c1O`, the activity change, negative = inhibition was inactive: 0.431%. In the case of `O=C(Cc1sc(-c2ccccc2)nc1-c1ccccc1)Nc1ccccc1`, the activity change, negative = inhibition is inactive: -0.152%. On to `COc1ccc(CC(=O)Nc2ccc(/C(C)=N/NC(=O)c3cccc([N+](=O)[O-])c3)cc2)cc1`, for which the activity change, negative = inhibition is inactive: -0.185%. On to `O=C(NC(=S)Nc1ccccn1)c1ccc([N+](=O)[O-])cc1`, for which the activity change, negative = inhibition is inactive: 1.11%. Regarding `Cc1nnc2c(N3CCN(C(=O)c4ccco4)CC3)nc3ccccc3n12`, the activity change, negative = inhibition is inactive: 0.2%.

For the molecule `COc1ccc(CNC(=O)CSc2nnnn2Cc2ccccc2)cc1`, the activity change, negative = inhibition was inactive: 0.244%. `Clc1cccc(Cl)c1Cn1c(-c2cccnc2Cl)nc2ccccc21`: the activity change, negative = inhibition was inactive: 0.825%. As to `COc1ccc(OCC(=O)N2CCC3(CC2)CC(=O)c2ccccc2O3)cc1`, the activity change, negative = inhibition is inactive: -0.153%. Take `CC(=O)C(Sc1nc(N2CCOCC2)nc(N2CCOCC2)n1)C(=O)Nc1ccccc1` (centres undefined): the activity change, negative = inhibition was inactive: 0.0396%. With `COc1cc(S(=O)(=O)N(Cc2cccs2)CC2CCCO2)ccc1-n1cnnn1` (centres undefined), the activity change, negative = inhibition was inactive: -0.204%. On to `COc1ccc(CCNC(=O)c2ccc3c(c2)NC(=O)C(N2CCOCC2)S3)cc1OC` (centres undefined), for which the activity change, negative = inhibition is inactive: -0.744%. With `CC(C)NC(=O)Nc1cccc2c1O[C@H](CN(C)C(=O)NC1CCCCC1)[C@H](C)CN([C@H](C)CO)C2=O`, the activity change, negative = inhibition is inactive: 0.502%. With `NC(=O)COc1cccc2cccnc12`, the activity change, negative = inhibition was inactive: 0.026%. On to `O=C(Nc1cccc(Cl)c1)NC1CCN(C2CCCCC2)C1` (centres undefined), for which the activity change, negative = inhibition is inactive: -0.217%.

Take `Cc1ccc(NC(=O)COC(=O)c2ccco2)cc1S(=O)(=O)N1CCOCC1`: the activity change, negative = inhibition is inactive: 0.773%. Regarding `C=CCNC(=S)NNC(=O)COc1cccc(Cl)c1`, the activity change, negative = inhibition was inactive: -0.462%. Next, `CCn1c(SCC(=O)NCc2ccco2)nnc1-c1cccs1`: inactive: -0.00731%.

On to `Nc1cc(OC(=O)c2ccccc2Br)nn1S(=O)(=O)c1ccccc1`, for which the activity change, negative = inhibition was inactive: 0.388%. As for `CN(CCCNC(=O)CSc1cc(=O)n(C)c2ccc(Cl)cc12)Cc1ccccc1`, the activity change, negative = inhibition is inactive: 0.623%. `O=C(NCc1nnc(SCC(=O)N2CCCCC2)o1)c1c(F)cccc1F`: the activity change, negative = inhibition is inactive: -0.609%.

Take `Cc1cc(C)c2cc(C#N)c(SCC(=O)Nc3ccc4c(c3)OCO4)nc2c1`: the activity change, negative = inhibition was inactive: 0.645%. For `CN(C)CCOc1ccc(-c2c(-c3ccccc3)sc3ccccc23)cc1`, the activity change, negative = inhibition is inactive: 0.31%. Turning to `Cn1c(=O)c2[nH]c(N=NNc3ccccc3F)nc2n(C)c1=O`, the activity change, negative = inhibition was inactive: -0.988%. For the molecule `O=C1CC(N2CCC(O)(c3ccc(Cl)cc3)CC2)C(=O)N1Cc1ccc(N2CCCC2=O)cc1` (centres undefined), the activity change, negative = inhibition is inactive: 0.431%. Consider `Cn1nc(NC(=O)C(C)(C)C)c2c(F)cccc21`, for which the activity change, negative = inhibition is inactive: 0.111%. As to `COc1ccc(N=Cc2cccc(C)c2O)cc1Cl`, the activity change, negative = inhibition is inactive: -0.17%.

For the molecule `O=c1[nH]cnc2c1c(-c1ccccc1)cn2-c1ccccc1`, the activity change, negative = inhibition is inactive: 0.0419%. For `Cc1csc(SCC(=O)Nc2ccccc2C)n1`, the activity change, negative = inhibition is inactive: -0.0897%.

With `Cc1ccc(C)c(S(=O)(=O)Nc2cc(SCC(=O)O)c(O)c3ccccc23)c1`, the activity change, negative = inhibition is inactive: -0.0417%. As to `COc1ccc(C)cc1-n1nnnc1SC/C(O)=C(\C#N)c1nc2ccccc2[nH]1`, the activity change, negative = inhibition was inactive: -0.515%. Consider `CCCS(=O)(=O)N1CCN(S(=O)(=O)c2ccccc2[N+](=O)[O-])CC1`, for which the activity change, negative = inhibition was inactive: -0.268%. On to `COc1cc([N+](=O)[O-])ccc1NC(=O)CSc1nccn1C`, for which the activity change, negative = inhibition is inactive: 0.071%. On to `COc1ccc(/C=N/NS(=O)(=O)c2ccc(NC(C)=O)cc2)cc1`, for which the activity change, negative = inhibition was inactive: 0.054%.

In the case of `CCCc1nn(C)c(C(=O)Nc2ccc(C)c(C)c2)c1Cl`, the activity change, negative = inhibition is inactive: -0.267%.

As for `Cc1cccc(NCc2ccc(O)c3ncccc23)c1`, the activity change, negative = inhibition was inactive: 0.74%.

For `COc1ccc(S(=O)(=O)Nc2cccc3c2O[C@H](CN(C)Cc2ccc(C(=O)O)cc2)[C@@H](C)CN([C@H](C)CO)C3=O)cc1`, the activity change, negative = inhibition is inactive: 0.333%. Next, `CC(=O)c1cc2c(O)c(O)ccc2o1`: inactive: 0.648%; `Cc1c(NC(=O)C2Cc3ccccc3CN2C(=O)c2ccco2)c(=O)n(-c2ccccc2)n1C` (centres undefined): inactive: 0.159%. As for `O=C(Nc1c(F)cc(F)cc1Br)c1ccco1`, the activity change, negative = inhibition was inactive: 0.234%. As to `O=C(NCCNc1ccc([N+](=O)[O-])cc1C(F)(F)F)c1ccccc1`, the activity change, negative = inhibition is inactive: 0.504%. Consider `Cc1cc(SCC(=O)c2ccccc2)n2nc(C)nc2n1`, for which the activity change, negative = inhibition was inactive: 0.67%. Turning to `Cc1ccc(-c2nnc(SC(C)C(=O)NCC3CCCO3)nc2-c2ccc(C)cc2)cc1` (centres undefined), the activity change, negative = inhibition is inactive: 0.403%. As for `Cc1c(C(=O)N2CCC3(CC2)CC(=O)c2ccccc2O3)cccc1[N+](=O)[O-]`, the activity change, negative = inhibition is inactive: -0.102%. Regarding `O=C(NNC(=O)c1cccnc1Cl)c1ccc(F)cc1`, the activity change, negative = inhibition was inactive: 0.569%. Next, `CCOC(=O)c1ccc2c(c1)nc(COc1ccc3ccccc3c1)n2CC`: inactive: 0.593%. As to `C[C@@H](NC(=O)Cn1cnc2c(OCc3ccccc3)ncnc21)c1cccc2ccccc12`, the activity change, negative = inhibition was inactive: 0.883%. As to `C#CCNC(=O)C1=C[C@@H](c2ccc(C(F)(F)F)cc2)C[C@@H](OCCCCO)O1`, the activity change, negative = inhibition was inactive: -0.00206%. Take `Cc1ccc(S(=O)(=O)N2CCOCC2)cc1NC(=O)COC(=O)c1cc(=O)[nH]c2ccccc12`: the activity change, negative = inhibition was inactive: 0.217%. Take `CCCCN1CC[C@H]2C=CC[C@@H](C(=O)Nc3ccc(OC)cc3)[C@H]2C1=O`: the activity change, negative = inhibition is inactive: -0.459%. In the case of `C#CCOCCOCCOCCNc1nc(N2CCN(C(=O)CCCCCCCCCCNC(=O)[C@H]([C@@H](C)CC)n3cc(CCCCN=C(N)N)nn3)CC2)nc(N2CCN(C(=O)CCCCCCCCCCNC(=O)[C@H](CCCCN)n3cc(C)nn3)CC2)n1`, the activity change, negative = inhibition was inactive: -0.429%. With `COc1ccc(NC(=O)N(C)C[C@H]2Oc3ccc(NC(=O)CCN4CCOCC4)cc3C(=O)N([C@H](C)CO)C[C@@H]2C)cc1` the figure was inactive: 0.441%.

The record behind these values is PubChem BioAssay AID485318 (Broad Institute, 2010).
